Source: paper PMC8379338, “Structures of heat shock factor trimers bound to DNA” (iScience, 2021)
Results are given in words; binding and its absence hold for the method and conditions named. Some results given as binding are weak or reduced against the parent protein; the word gives no strength.

The chains behind the UniProt entries cited, without tags or fusion partners. Residues count along the entry.
UniProt Q00613, residues 15-120: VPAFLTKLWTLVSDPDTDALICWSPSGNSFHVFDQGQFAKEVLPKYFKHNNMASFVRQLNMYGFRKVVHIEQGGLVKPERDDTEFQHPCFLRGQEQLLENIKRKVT
UniProt Q03933, residues 7-112: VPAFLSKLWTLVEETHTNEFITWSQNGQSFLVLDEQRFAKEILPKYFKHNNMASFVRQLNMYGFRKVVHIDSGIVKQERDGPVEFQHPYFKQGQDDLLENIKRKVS

Columns and labels:
[1] = target: DNA-binding domain (DBD) of human heat shock factor 1 (HSF1), residues 15-120 (human) (UniProt Q00613); assay: crystal structure; DBD co-crystallised with a blunt-ended two-site head-to-head HSE DNA duplex (12 bp for HSF2, 14 bp for HSF1); protein:DNA molar ratio 2:1.5; hanging drop, 20°C; two DBD copies on one DNA duplex; both purified
[2] = target: DNA-binding domain (DBD) of human heat shock factor 2 (HSF2), residues 7-112 (human) (UniProt Q03933); assay: as above

Row | binding [1] | binding [2] | Substance
1 | binds weakly | – | DNA-binding domain (DBD) of human heat shock factor 1 (HSF1), residues 15-120 (from UniProt Q00613 15-120) (domain or fragment)
2 | – | binds weakly | DNA-binding domain (DBD) of human heat shock factor 2 (HSF2), residues 7-112 (from UniProt Q03933 7-112) (domain or fragment)
